The target of test [1] is SUMO fused ACR4 intracellular domain (sACR4), unphosphorylated (Arabidopsis) (UniProt Q9LX29). As to the kind of experiment: HDX-MS; sACR4 alone or with sCRK1 (ratios 1:1 or 1:3), unphosphorylated; 50 mM Bis Tris pH 7.2, 25 mM NaCl, 0.1 mM MnCl2, 1 mM DTT in D2O, 10-3600 s at 4°C; pepsin digest; both purified.
Test [2] shares this target. As to the kind of experiment: SEC; Superdex G-200 10/300; unphosphorylated proteins alone or mixed at 5 μM each, 1 h at room temperature; 50 mM Tris pH 7.4, 100 mM NaCl, 1 mM DTT, 100 μM MnCl2; fractions analysed by 12% SDS-PAGE; both purified.
Test [3] deals with MBP fused ACR4 intracellular domain (mACR4), unphosphorylated (Arabidopsis) (UniProt Q9LX29). Nature of the test: pull-down; mACR4 bait (20 μg, ~0.4 μM) on amylose resin, SUMO-fused prey (30 μg, ~1 μM); proteins naive or autophosphorylated 1 h with 100 μM ATP beforehand; Binding Buffer 50 mM Tris-HCl pH 7.4, 150 mM NaCl, 1 mM DTT, 0.02% NP-40, room temperature; coomassie and anti-SUMO blot; both purified.

Amino acid sequences for entries named in this document (tags omitted). A change or cut given only in a name is not applied to a line headed by its entry.
UniProt Q9LX29: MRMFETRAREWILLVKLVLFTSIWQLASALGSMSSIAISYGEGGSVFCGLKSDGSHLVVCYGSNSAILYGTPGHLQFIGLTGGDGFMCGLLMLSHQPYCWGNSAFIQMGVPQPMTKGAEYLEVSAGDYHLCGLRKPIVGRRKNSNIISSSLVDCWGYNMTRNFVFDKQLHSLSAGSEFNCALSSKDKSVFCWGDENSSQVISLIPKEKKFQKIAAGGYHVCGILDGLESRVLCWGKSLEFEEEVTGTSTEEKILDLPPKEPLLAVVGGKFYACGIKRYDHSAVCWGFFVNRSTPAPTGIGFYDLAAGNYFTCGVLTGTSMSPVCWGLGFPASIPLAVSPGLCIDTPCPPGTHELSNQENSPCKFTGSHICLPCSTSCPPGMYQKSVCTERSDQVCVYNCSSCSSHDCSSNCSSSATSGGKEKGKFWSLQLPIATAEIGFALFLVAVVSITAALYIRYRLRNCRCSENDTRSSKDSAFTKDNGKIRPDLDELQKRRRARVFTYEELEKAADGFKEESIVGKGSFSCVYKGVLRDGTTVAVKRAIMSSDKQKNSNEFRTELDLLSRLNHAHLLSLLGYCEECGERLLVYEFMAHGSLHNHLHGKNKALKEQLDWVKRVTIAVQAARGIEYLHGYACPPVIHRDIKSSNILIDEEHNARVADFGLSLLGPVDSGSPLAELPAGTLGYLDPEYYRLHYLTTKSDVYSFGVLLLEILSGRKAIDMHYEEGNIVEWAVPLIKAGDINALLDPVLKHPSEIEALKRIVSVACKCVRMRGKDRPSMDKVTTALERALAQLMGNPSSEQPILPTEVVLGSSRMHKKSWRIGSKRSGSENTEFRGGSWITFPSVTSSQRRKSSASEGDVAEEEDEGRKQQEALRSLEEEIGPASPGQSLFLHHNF
UniProt Q9FIJ6: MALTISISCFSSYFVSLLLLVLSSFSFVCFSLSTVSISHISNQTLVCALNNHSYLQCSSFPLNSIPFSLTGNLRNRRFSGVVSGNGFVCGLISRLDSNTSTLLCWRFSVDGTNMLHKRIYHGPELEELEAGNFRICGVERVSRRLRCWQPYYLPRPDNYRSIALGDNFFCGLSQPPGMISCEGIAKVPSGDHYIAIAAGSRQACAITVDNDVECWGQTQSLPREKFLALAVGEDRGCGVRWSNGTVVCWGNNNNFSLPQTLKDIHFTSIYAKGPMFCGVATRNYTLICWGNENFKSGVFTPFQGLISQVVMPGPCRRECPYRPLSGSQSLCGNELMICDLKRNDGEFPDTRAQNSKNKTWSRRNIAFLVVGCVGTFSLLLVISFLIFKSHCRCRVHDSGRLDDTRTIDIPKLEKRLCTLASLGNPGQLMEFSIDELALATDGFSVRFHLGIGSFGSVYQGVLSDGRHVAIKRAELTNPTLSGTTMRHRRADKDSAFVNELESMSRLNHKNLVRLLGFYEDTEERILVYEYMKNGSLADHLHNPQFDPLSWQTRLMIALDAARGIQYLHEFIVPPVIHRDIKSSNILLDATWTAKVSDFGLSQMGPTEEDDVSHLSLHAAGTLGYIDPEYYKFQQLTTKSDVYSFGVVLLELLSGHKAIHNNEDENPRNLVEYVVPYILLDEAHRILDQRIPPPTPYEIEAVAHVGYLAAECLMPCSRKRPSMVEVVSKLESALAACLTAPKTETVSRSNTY
UniProt O80963: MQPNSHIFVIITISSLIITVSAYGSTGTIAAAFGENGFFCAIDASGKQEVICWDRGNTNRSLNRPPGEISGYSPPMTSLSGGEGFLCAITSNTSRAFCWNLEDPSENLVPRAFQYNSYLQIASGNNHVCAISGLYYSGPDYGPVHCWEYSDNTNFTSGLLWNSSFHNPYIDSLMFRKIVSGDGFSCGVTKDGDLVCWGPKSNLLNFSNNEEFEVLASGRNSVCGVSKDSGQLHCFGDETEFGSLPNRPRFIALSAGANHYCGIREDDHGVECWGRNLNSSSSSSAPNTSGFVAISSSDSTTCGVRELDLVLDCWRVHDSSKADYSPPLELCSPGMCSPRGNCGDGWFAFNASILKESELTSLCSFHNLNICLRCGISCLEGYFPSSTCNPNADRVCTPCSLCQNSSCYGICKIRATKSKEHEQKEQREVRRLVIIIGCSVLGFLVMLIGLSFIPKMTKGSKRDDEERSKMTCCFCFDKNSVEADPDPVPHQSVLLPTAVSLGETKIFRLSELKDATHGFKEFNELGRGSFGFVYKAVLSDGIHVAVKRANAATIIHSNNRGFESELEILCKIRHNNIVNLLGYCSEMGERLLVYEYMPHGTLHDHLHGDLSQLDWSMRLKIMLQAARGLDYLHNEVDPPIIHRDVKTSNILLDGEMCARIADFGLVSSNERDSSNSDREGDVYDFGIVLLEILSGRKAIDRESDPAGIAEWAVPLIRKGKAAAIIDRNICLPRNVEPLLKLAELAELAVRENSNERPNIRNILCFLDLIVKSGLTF
UniProt Q9S7D9: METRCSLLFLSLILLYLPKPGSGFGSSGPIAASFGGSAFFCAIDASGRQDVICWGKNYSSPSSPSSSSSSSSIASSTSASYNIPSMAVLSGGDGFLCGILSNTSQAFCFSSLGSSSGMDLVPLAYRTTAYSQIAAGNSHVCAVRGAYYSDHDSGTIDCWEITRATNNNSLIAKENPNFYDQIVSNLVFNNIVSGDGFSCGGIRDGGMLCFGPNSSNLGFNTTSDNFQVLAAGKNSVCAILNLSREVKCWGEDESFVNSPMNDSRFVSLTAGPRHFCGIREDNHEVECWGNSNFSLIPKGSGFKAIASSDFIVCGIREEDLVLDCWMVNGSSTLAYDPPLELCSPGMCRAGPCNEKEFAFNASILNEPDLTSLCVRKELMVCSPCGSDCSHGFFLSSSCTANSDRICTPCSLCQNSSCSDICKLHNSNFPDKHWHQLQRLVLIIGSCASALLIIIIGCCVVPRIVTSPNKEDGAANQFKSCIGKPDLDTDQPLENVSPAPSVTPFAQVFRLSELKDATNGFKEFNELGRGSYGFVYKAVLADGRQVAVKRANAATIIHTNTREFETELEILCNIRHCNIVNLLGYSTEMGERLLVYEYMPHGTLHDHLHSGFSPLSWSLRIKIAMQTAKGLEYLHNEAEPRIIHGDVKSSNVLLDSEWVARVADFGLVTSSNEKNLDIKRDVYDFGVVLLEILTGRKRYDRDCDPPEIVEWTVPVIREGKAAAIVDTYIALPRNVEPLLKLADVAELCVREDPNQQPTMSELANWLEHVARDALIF

In test [4] the target is T1, MBP-fused WOX5 (mWOX5) (Arabidopsis) (UniProt Q8H1D2).
T1 sequence: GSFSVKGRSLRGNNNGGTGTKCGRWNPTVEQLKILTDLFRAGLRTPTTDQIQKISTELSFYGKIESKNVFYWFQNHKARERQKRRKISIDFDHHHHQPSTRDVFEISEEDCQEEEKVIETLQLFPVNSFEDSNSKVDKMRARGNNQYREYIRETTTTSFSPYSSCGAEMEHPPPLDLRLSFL
Nature of the test: pull-down; mWOX5 (or MBP) bait 20 μg on amylose resin, sACR4 (naive or autophosphorylated) or SUMO prey 30 μg; Binding Buffer 50 mM Tris-HCl pH 7.4, 150 mM NaCl, 1 mM DTT, 0.02% NP-40, room temperature; coomassie and anti-SUMO blot; both purified.

These are yes or no findings as the source states them, for the method shown. Binding can be weak; no strength is given. For some assays here: Tags and fused reporters may be left off the sequences shown.

“SUMO fused CRK1 intracellular domain (sCRK1), unphosphorylated (from UniProt Q9FIJ6) (domain or fragment)”: the binding result in test [1], in test [2] and in test [3] was “binds” throughout.
Consider “SUMO fused CRR2 intracellular domain (sCRR2), unphosphorylated (from UniProt O80963) (domain or fragment)”, for which the binding entry in test [2] and in test [3] was “binds” throughout.
For “SUMO fused CRR1 intracellular domain (sCRR1), unphosphorylated (from UniProt Q9S7D9) (domain or fragment)”, the binding result in test [3] is “binds”.
With “SUMO fused ACR4 intracellular domain (sACR4), unphosphorylated (from UniProt Q9LX29) (domain or fragment)”, the binding result in test [4] and in test [3] was “binds” each time.
